Assay results reported in the supplement of paper PMC10849652.
Some of the results follow.

Sequences of proteins named here, by UniProt entry; tags and fusion partners are left off. A change or cut given only in a name is not applied to a line headed by its entry.
UniProt Q9BUL8: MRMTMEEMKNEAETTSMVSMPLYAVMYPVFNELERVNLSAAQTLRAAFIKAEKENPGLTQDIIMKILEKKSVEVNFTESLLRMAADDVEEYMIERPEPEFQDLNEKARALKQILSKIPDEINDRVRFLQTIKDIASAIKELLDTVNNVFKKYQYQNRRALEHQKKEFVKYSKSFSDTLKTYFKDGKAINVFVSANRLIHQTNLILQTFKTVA
UniProt P12004, whole entry, looked up: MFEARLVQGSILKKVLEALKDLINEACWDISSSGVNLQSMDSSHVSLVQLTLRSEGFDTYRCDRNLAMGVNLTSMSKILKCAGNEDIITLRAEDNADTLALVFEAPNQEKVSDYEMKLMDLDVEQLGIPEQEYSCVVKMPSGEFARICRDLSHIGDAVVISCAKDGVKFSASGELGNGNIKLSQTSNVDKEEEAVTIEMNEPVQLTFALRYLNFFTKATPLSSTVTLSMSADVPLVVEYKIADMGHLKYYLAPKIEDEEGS
UniProt Q9BYG5: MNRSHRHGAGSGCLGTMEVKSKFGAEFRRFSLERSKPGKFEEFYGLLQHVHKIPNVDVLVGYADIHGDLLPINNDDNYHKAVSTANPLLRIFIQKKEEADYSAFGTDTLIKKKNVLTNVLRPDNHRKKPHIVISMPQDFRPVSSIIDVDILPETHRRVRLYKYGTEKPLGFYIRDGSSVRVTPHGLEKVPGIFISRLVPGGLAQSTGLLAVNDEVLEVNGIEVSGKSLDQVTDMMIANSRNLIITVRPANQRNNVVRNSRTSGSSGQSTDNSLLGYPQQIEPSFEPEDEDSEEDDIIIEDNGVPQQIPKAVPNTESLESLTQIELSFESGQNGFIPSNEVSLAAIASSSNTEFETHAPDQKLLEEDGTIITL
UniProt P11177, whole entry, looked up: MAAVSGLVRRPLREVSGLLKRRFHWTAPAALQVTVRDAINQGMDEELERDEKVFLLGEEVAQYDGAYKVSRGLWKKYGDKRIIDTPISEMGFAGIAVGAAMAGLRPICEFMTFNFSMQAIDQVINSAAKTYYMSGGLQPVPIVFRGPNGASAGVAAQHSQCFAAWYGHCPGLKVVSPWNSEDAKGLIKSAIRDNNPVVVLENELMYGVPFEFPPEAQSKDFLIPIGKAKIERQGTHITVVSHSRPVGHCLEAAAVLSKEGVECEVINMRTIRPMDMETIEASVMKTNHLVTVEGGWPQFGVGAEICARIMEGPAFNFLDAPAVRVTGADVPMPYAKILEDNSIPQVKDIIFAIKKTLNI
UniProt Q9NUG6, whole entry, looked up: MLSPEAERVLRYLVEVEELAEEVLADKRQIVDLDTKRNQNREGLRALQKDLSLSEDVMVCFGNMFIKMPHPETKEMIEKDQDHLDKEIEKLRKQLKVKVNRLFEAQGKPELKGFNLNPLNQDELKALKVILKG
UniProt Q9BPZ3: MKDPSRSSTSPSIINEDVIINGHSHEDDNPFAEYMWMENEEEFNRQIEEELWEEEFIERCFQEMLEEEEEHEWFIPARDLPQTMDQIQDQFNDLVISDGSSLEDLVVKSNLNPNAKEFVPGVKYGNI
UniProt O00151: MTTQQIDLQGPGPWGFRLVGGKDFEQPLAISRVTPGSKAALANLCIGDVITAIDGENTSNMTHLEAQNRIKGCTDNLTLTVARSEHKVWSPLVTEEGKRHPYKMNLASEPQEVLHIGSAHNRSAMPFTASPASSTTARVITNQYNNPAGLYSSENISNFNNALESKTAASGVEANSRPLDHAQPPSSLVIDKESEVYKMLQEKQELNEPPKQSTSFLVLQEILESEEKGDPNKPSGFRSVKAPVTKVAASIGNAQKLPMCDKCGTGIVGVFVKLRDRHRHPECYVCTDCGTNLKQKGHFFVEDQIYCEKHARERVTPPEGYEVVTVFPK
UniProt Q9UNF0: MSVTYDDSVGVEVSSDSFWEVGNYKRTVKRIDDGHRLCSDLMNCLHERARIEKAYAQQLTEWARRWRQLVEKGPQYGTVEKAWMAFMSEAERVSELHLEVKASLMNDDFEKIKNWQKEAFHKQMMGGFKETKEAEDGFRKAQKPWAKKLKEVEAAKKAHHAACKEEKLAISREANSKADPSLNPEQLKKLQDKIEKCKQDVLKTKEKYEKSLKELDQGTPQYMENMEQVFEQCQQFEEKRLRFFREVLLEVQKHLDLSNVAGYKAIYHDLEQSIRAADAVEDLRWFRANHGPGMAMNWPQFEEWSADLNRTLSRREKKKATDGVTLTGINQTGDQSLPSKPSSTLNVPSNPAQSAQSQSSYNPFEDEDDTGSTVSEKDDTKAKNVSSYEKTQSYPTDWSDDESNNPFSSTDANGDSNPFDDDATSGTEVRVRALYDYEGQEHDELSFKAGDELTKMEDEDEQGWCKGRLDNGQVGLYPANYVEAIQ
UniProt P61457: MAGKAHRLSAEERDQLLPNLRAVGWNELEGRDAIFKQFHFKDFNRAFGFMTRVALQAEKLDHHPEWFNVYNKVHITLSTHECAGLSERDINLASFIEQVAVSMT
UniProt O00330, whole entry, looked up: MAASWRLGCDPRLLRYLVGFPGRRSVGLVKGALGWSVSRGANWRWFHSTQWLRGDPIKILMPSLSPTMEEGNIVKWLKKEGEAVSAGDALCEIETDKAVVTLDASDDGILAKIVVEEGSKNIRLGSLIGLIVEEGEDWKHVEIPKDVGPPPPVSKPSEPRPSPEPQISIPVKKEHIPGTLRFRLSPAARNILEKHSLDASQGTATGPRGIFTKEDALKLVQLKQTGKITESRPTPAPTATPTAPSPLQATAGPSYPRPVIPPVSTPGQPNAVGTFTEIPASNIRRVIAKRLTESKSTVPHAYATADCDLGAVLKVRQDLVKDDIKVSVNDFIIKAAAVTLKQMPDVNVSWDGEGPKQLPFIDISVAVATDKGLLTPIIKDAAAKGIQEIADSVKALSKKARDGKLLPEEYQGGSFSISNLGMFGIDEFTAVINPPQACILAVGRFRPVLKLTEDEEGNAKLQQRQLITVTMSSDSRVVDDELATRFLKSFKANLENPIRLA
UniProt O75459: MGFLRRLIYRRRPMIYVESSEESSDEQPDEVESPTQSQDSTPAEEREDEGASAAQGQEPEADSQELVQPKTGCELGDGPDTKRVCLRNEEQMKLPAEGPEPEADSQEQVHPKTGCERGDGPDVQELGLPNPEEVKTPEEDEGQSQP
UniProt Q13177, whole entry, looked up: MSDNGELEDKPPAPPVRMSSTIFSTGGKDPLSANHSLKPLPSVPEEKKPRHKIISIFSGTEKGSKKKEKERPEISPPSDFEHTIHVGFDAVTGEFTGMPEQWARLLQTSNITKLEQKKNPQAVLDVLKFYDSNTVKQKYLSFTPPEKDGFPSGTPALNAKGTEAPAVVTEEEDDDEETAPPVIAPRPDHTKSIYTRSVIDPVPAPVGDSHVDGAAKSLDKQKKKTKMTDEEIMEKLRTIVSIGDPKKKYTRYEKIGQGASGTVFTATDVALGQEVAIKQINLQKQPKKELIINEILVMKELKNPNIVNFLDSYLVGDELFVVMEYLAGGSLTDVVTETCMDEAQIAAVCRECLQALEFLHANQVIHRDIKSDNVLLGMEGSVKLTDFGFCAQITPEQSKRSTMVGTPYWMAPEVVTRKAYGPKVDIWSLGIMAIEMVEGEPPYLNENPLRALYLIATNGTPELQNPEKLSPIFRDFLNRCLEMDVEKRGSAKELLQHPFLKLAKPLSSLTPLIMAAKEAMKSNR
UniProt P22234: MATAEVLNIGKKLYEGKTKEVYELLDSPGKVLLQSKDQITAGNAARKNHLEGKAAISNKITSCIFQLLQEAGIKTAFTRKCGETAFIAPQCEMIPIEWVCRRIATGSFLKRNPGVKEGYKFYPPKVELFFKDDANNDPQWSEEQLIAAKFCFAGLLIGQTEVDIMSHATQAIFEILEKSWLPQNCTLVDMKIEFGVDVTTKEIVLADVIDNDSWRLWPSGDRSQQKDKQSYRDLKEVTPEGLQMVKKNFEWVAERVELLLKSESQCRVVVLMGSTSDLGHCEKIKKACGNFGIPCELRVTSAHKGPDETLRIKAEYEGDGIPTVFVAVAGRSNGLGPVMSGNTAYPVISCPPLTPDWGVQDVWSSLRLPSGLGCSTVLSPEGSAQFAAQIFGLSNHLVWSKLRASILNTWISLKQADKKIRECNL
UniProt Q15084: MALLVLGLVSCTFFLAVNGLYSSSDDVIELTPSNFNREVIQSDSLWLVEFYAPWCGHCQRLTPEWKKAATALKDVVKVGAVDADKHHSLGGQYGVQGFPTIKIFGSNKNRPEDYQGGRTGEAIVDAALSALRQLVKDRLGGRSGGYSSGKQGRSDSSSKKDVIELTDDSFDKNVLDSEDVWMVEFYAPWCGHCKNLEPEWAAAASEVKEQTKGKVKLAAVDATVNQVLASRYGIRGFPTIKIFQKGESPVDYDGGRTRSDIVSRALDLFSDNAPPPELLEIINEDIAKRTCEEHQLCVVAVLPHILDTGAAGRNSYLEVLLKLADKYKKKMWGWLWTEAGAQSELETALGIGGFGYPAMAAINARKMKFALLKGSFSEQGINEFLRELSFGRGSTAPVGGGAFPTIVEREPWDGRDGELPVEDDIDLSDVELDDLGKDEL
UniProt O14737: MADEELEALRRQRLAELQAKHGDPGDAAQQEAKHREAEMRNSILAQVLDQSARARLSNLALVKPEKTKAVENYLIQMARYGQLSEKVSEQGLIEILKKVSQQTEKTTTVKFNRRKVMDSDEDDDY
UniProt Q96HC4: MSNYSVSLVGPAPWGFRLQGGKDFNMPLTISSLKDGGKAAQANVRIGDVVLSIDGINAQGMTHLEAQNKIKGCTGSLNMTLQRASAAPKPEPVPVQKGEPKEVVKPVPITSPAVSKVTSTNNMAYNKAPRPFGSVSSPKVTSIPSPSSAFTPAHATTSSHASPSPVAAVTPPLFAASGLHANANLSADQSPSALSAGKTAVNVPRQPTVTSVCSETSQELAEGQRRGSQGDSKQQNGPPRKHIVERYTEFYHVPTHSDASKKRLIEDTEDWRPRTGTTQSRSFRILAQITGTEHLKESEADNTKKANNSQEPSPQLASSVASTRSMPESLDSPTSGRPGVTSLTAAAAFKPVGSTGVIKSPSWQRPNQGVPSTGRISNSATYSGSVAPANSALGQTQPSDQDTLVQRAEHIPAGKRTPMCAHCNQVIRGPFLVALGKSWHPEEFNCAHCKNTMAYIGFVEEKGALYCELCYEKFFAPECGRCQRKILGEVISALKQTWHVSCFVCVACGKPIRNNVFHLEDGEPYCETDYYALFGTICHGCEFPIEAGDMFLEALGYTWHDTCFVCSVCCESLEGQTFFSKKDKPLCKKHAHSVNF
UniProt Q14554: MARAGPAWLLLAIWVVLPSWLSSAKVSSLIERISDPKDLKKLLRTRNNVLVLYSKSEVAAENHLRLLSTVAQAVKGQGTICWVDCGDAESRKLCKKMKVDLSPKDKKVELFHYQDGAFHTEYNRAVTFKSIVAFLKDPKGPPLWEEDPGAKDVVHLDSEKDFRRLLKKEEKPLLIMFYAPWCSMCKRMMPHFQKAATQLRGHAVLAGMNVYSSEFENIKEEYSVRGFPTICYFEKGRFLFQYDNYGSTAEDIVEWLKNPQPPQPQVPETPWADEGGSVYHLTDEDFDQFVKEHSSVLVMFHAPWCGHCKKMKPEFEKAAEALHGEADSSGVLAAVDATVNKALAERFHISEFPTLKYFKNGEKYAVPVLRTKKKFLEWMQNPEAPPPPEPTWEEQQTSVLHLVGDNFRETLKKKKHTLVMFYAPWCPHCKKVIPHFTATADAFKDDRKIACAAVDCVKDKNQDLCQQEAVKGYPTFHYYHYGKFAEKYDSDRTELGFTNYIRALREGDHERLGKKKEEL
UniProt Q9NP74: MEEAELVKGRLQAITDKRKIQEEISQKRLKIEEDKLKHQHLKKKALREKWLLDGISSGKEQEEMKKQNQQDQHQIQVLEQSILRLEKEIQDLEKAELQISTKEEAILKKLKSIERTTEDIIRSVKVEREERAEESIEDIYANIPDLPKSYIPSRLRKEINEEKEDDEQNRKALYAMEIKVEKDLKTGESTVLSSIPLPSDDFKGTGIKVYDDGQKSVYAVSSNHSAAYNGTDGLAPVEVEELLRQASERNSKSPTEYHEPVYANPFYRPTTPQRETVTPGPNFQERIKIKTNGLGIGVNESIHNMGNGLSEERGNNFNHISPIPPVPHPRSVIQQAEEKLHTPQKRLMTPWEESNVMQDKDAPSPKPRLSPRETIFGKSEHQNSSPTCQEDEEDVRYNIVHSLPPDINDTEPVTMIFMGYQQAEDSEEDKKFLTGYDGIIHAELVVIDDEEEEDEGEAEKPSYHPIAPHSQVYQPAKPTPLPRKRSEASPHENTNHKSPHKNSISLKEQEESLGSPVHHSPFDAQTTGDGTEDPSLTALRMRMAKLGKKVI
UniProt Q96GU1: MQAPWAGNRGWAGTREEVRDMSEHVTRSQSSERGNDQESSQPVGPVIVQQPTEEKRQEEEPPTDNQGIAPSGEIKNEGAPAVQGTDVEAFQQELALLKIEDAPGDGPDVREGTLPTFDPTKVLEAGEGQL
UniProt Q8WW12: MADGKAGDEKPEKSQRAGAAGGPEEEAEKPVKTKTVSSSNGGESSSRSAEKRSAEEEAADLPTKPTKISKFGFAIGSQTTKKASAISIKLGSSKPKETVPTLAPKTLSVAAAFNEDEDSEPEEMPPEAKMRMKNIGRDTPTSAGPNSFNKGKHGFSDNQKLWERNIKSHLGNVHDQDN

How the values were obtained:
Experiment in all cases: log2 fold change, soluble protein after heating vs DMSO (PISA); higher = thermal stabilisation; K562 cells, 10 uM, 30 min; active = over 0.2 and 3.5 SD of the protein, either way, in both replicates (recomputed)
[1] = compound: CC[C@@H]1C(=O)N(C)c2cnc(Nc3ccc(C(=O)NC4CCN(C)CC4)cc3OC)nc2N1C1CCCC1
How it was run: (§1)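 Thermal stability values are relative to control samples and come from duplicates. They are expressed as log2 fold changes. For measurement, K562 cells (2×10^6 cells/mL) received 10 μM compound for 30 min, and aliquots were heated for 3 min over 48°C-58°C, pooled, and extracted at 4°C in PBS with 0.5% NP-40. Soluble protein, the supernatant after 21,000xg for 90 min, was quantified by TMTpro 16plex LC-MS/MS with equalised channel sums.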

[2] = compound: CC[C@@H]1C(=O)N(C)c2cnc(Nc3ccc(C(=O)N[C@H]4CC[C@H](N5CCN(CC6CC6)CC5)CC4)cc3OC)nc2N1C(C)C [volasertib]
How it was run: as §1

[3] = compound: CC[C@H](C)N1C=C(C2=C(C=C(C=C21)C3=CN=C(C=C3)N4CCNCC4)C(=O)NCC5=C(C=C(NC5=O)C)C)C
How it was run: as §1

[4] = compound: CC[C@H](C)[C@@H](C(=O)N[C@@H]([C@@H](C)O)C(=O)N[C@@H](CC(C)C)C(=O)[C@]1(CO1)C)NC(=O)[C@H]([C@@H](C)CC)N(C)C(=O)C [epoxomicin]
How it was run: as §1

[5] = compound: CCn1c(C(=O)N(C2CC2)C2CC2)cc2c3c(ncn3C)c(Nc3cc(C)n(C)n3)nc21
How it was run: as §1

[6] = compound: CCn1cc(-c2ccnc3[nH]c(-c4cccc(CN(C)C)c4)cc23)c(-c2ccc(NC(=O)N(C)C)cc2)n1
How it was run: as §1

[7] = compound: CN(C)CC(=O)Nc1ccc2[nH]c(=O)c3ccccc3c2c1
How it was run: as §1

[8] = compound: CN(CCOC1=CC=C(C=C1)C[C@H]2C(=O)NC(=O)S2)C3=CC=CC=N3 (racemic) [rosiglitazone]
How it was run: as §1

[9] = compound: CN1C2=C(C3=C1C(=O)N(N=C3)CC4=CC(=CC=C4)N)SC(=C2)S(=O)C
How it was run: as §1

[10] = compound: CN1CCC(CNc2ccc3ncc(-c4cccc(OC(F)(F)F)c4)n3n2)CC1
How it was run: as §1

Measured: log2 fold change

PDCD10 (UniProt Q9BUL8)
inactive: [1] 0.015 | [2] -0.135 | [3] 0.024 | [4] 0.025 | [5] 0.023 | [6] -0.024 | [7] -0.005 | [8] 0.035 | [9] -0.075 | [10] -0.103

PCNA (UniProt P12004)
inactive: [1] -0.016 | [2] 0.003 | [3] -0.016 | [4] 0.025 | [5] -0.012 | [6] 0.009 | [7] -0.011 | [8] 0.001 | [9] -0.028 | [10] -0.037

PARD6B (UniProt Q9BYG5)
inactive: [1] 0.016 | [2] 0.023 | [3] -0.01 | [4] 0.366 | [5] -0.158 | [6] 0.001 | [7] 0.102 | [8] 0.047 | [9] 0.048 | [10] 0.001

PDHB (UniProt P11177)
inactive: [1] 0.01 | [2] 0.156 | [3] 0.059 | [4] 0.049 | [5] -0.043 | [6] 0.005 | [7] 0.017 | [8] 0.022 | [9] 0.042 | [10] -0.036

PDRG1 (UniProt Q9NUG6)
inactive: [1] 0.032 | [2] 0.156 | [3] 0 | [4] 0.056 | [5] 0.043 | [6] 0.028 | [7] -0.122 | [8] 0.042 | [9] -0.026 | [10] -0.013

PAIP2 (UniProt Q9BPZ3)
inactive: [1] 0.007 | [2] -0.08 | [3] 0.1 | [4] 0.01 | [5] 0.072 | [6] 0.013 | [7] 0.037 | [8] 0.031 | [9] 0.079 | [10] -0.021

PDLIM1 (UniProt O00151)
inactive: [1] -0.069 | [2] 0.031 | [3] -0.039 | [4] 0.039 | [5] 0.017 | [6] -0.009 | [7] 0.002 | [8] -0.001 | [9] -0.029 | [10] -0.003

PACSIN2 (UniProt Q9UNF0)
inactive: [1] -0.003 | [2] -0.024 | [3] 0.097 | [4] -0.021 | [5] -0.121 | [6] -0.057 | [7] 0.092 | [8] 0.103 | [9] 0.017 | [10] -0.158

PCBD1 (UniProt P61457)
inactive: [1] 0.057 | [2] 0.148 | [3] -0.032 | [4] -0.012 | [5] -0.047 | [6] 0.026 | [7] -0.05 | [8] 0.001 | [9] 0.041 | [10] -0.105

PANK1 (UniProt Q8TE04)
inactive: [1] 0.12 | [2] -0.093 | [3] 0.072 | [4] 0.082 | [5] 0.035 | [6] -0.016 | [7] 0.047 | [8] 0.048 | [9] -0.187 | [10] -0.085

PDXK (UniProt O00764)
inactive: [1] -0.138 | [2] -0.03 | [3] -0.029 | [4] 0.06 | [5] -0.005 | [6] -0.019 | [7] -0.015 | [8] -0.026 | [9] -0.076 | [10] -0.014

PDHX (UniProt O00330)
inactive: [1] 0.071 | [2] 0.3 | [3] -0.017 | [4] -0.044 | [5] 0.073 | [6] 0.186 | [7] -0.021 | [8] -0.069 | [9] 0.174 | [10] 0.123

PAGE1 (UniProt O75459)
inactive: [1] -0.025 | [2] 0.163 | [3] -0.041 | [4] 0.058 | [5] 0.046 | [6] 0.019 | [7] -0.058 | [8] -0.016 | [9] -0.002 | [10] -0.017

PAK2 (UniProt Q13177)
inactive: [1] -0.043 | [2] -0.017 | [3] 0.032 | [4] 0.006 | [5] 0.026 | [6] -0.027 | [7] 0.011 | [8] 0.005 | [9] -0.08 | [10] -0.026

PAICS (UniProt P22234)
inactive: [1] -0.019 | [2] 0.103 | [3] -0.077 | [4] -0.004 | [5] -0.001 | [6] -0.014 | [7] -0.03 | [8] 0 | [9] -0.053 | [10] -0.005

PDIA6 isoform 2 (UniProt Q15084)
inactive: [1] -0.031 | [2] 0.066 | [3] -0.008 | [4] 0.059 | [5] 0.038 | [6] 0.013 | [7] -0.046 | [8] -0.022 | [9] 0 | [10] 0.042

PDCD5 (UniProt O14737)
inactive: [1] 0.003 | [2] 0.068 | [3] -0.036 | [4] 0.056 | [5] 0.028 | [6] 0.035 | [7] -0.01 | [8] 0.029 | [9] -0.044 | [10] 0.015

PDLIM5 (UniProt Q96HC4)
inactive: [1] -0.075 | [2] -0.151 | [3] 0.027 | [4] 0.043 | [5] -0.014 | [6] -0.075 | [7] 0.013 | [8] 0.034 | [9] -0.038 | [10] -0.06

PDZD8 (UniProt Q8NEN9)
inactive: [1] -0.019 | [2] -0.064 | [3] 0.021 | [4] 0.013 | [5] -0.013 | [6] 0.036 | [7] 0.023 | [8] 0.062 | [9] -0.036 | [10] -0.051

Two successive records out of the list so far, for reference:
PDIA6 isoform 2 (UniProt Q15084)
inactive: [1] -0.031 | [2] 0.066 | [3] -0.008 | [4] 0.059 | [5] 0.038 | [6] 0.013 | [7] -0.046 | [8] -0.022 | [9] 0 | [10] 0.042

PDCD5 (UniProt O14737)
inactive: [1] 0.003 | [2] 0.068 | [3] -0.036 | [4] 0.056 | [5] 0.028 | [6] 0.035 | [7] -0.01 | [8] 0.029 | [9] -0.044 | [10] 0.015

(listing goes on)

PDIA5 (UniProt Q14554)
inactive: [1] 0.022 | [2] 0.007 | [3] 0.01 | [4] 0.017 | [5] 0.005 | [6] 0.017 | [7] -0.042 | [8] -0.035 | [9] 0.065 | [10] 0.1

PCMT1 isoform 2 (UniProt P22061)
inactive: [1] -0.004 | [2] 0.057 | [3] 0.03 | [4] -0.006 | [5] 0.022 | [6] -0.042 | [7] 0.027 | [8] 0.025 | [9] -0.074 | [10] 0

PALMD (UniProt Q9NP74)
inactive: [1] -0.07 | [2] -0.043 | [3] -0.034 | [4] -0.03 | [5] -0.023 | [6] -0.022 | [7] 0.033 | [8] -0.018 | [9] 0.01 | [10] 0.067

PCCA (UniProt P05165)
inactive: [1] 0.077 | [2] 0.15 | [3] 0.01 | [4] 0.014 | [5] -0.005 | [6] -0.075 | [7] 0.058 | [8] 0.068 | [9] -0.003 | [10] -0.099

PDSS1 (UniProt Q5T2R2)
inactive: [1] 0.013 | [2] -0.009 | [3] 0.068 | [4] 0.215 | [5] 0.079 | [6] -0.068 | [7] 0.023 | [8] 0.026 | [9] -0.125 | [10] -0.122

PCM1 isoform 5 (UniProt Q15154)
inactive: [1] 0.016 | [2] -0.023 | [3] 0.007 | [4] -0.1 | [5] 0.031 | [6] 0.077 | [7] -0.069 | [8] -0.098 | [9] 0.227 | [10] -0.026

PDK1 (UniProt Q15118)
inactive: [1] 0.076 | [2] 0.202 | [3] -0.024 | [4] 0.005 | [5] -0.106 | [6] -0.078 | [7] 0.038 | [8] 0.196 | [9] -0.032 | [10] 0.099

PAGE5 (UniProt Q96GU1)
inactive: [1] 0.128 | [2] 0.097 | [3] -0.022 | [4] 0.297 | [5] -0.077 | [6] 0.079 | [7] 0.354 | [8] 0.012 | [9] 0.002 | [10] 0.15

PCNP (UniProt Q8WW12)
inactive: [1] 0.028 | [2] 0.094 | [3] -0.024 | [4] 0.002 | [5] 0.03 | [6] 0.029 | [7] -0.055 | [8] -0.009 | [9] -0.014 | [10] -0.007

PDCL3 (UniProt Q9H2J4)
inactive: [1] 0.032 | [2] -0.018 | [3] -0.014 | [4] 0.044 | [5] 0.01 | [6] -0.052 | [7] -0.047 | [8] 0.003 | [9] -0.035 | [10] 0.005

PDHA1 isoform 4 (UniProt P08559)
inactive: [1] 0.071 | [2] 0.182 | [3] 0.042 | [4] 0.03 | [5] -0.001 | [6] 0 | [7] -0.032 | [8] 0.035 | [9] 0.101 | [10] 0.019
